Values quoted from earlier work in patent US20070026026A1 (priority 2005, published 2007).
For at least one compound, name, drawing or mass did not settle the structure.

Details: cited from earlier work

| Compound | thermal stability of the crystalline form |
| --- | --- |
| CCCCc1nc(Cl)c(CO)n1Cc1ccc(-c2ccccc2-c2nnn[n-]2)cc1.[K+] [Form II] | high temperature stable form |
| CCCCc1nc(Cl)c(CO)n1Cc1ccc(-c2ccccc2-c2nnn[n-]2)cc1.[K+] [Form I] | low-temperature stable form |
